This assay concerns the target EtCDPK3 (Eimeria tenella). The assay is described as follows: two-hybrid; yeast two-hybrid screen for proteins interacting with EtCDPK3; no details given.

These are yes or no findings as the source states them, for the method shown. Binding calls can cover weak binding; strength is not graded here.

B1: EtCHP18905 protein (conserved hypothetical protein of Eimeria tenella) (protein, UniProt U6KXM2 1-350)
chain: MDRDRRSVYAETDFRSYTGSGNNYFLLDGQDEEENPQMPELRLSRREFRMRHRKSTAGSRGLNKSVSEPTMRAWIAGFLLLSLALSISVASLNRSEEKQQKQQQNTLPAHEPDVRVPSSPSYSASAAYGAGGDAELKQEKLPMTRNLHRTFLSLSLTEDNGLLRTLQGPEWGPAKEALLRSVDLVLECQPDEFEDTDSKVETMRLMLAMDLACLENAAVETKLAVDNARASQSDNHSEDIAAKIKANIDARRKQSRAAELWEVEVLKGKLGSDPELKAALVKLLLAVRSRAASSEYLSATVGTVMLQSDPSPHSKAEENRAYEETTQTIETASCRSFSVNCKESQAGNGW
Take B1: the binding result was “binds”.

These data come from article PMC8095096.
